# Assay results from patent US7608243 (dated 2009).
# Legend:
# [1] = general procedure: Fmoc solid-phase peptide synthesis; Rink Amide AM resin; HBTU (HATU for PEG unit); conditions: whole synthesis, scale 0.25 mmol
# [2] = general procedure: Fmoc solid-phase peptide synthesis; O-Bis-(aminoethyl)ethylene glycol trityl resin; HBTU (HATU for PEG unit); conditions: whole synthesis, scale 0.25 mmol
Substance,crude mass [1] [mg],crude mass [2] [mg]
ClCH2CO-Lys-Cys(tBu)-Arg-Gly-Asp-Cys(tBu)-Phe-Cys-PEG-NH2,322,
ClCH2CONH-Asp-Cys (tBu)-Arg-Gly-Asp-Cys (tBu)-Phe-Cys-Gly-NH— (CH2CH2O)2CH2CH2NH2,,364
